Measurements reported in US20100074896A1, “ANTAGONISTS OF PGE2 EP3 RECEPTORS” (The Johns Hopkins University, priority 2006, published 2010).

Test system: mouse model of middle cerebral artery (MCA) occlusion
Experiment: Relative cerebral blood flow by laser-Doppler flowmetry during MCAO
Format: in vivo
Details: after insertion of monofilament, vehicle 18.0±3.3

Compound: CCCCC[C@@H](/C=C/[C@H]1[C@H](OC)CC(=O)[C@@H]1C/C=C\CCCC(=O)O)OC [ONO-AE-248]
- Percent of baseline CBF (0.5 nmol ICV): 18.0±3.7% of baseline
- Percent of baseline CBF (2.5 nmol ICV): 17.5±2.0% of baseline
- Percent of baseline CBF (5.0 nmol ICV): 17.0±2.7% of baseline
